# From patent publication US12122774B2, “Compounds as MYT1 inhibitors” (WIGEN BIOMEDICINE TECHNOLOGY (SHANGHAI) CO., LTD., priority 2022, dated 2024)
# System: MDCK cells (MDCK wild type)
# Test: In vitro permeability experiment, MDCK wild type
# Settings: 5 μM, 90 min
# Method: In vitro passive permeability or the ability to serve as a P-glycoprotein (P-gp) transport substrate was tested using MDCK cells (MDCK wild type) or MDCK cells stably transduced with MDR1 (MDCK-MDR1), respectively. The permeability experiment was performed in duplicate in a transwell system at a single concentration (5 μM). The cells were incubated for 90 min. Apical-to-basolateral (A to B, A-B) transport and basolateral-to-apical (B to A, B-A) transport of the corresponding compound were determined, and the permeation rate (apparent permeability) (Papp×10^−6 cm/sec) and efflux ratio (Papp (B-A)/Papp (A-B)) of the test compound were calculated.
compound,measurement,setting,value
CC(C)NCC(O)COc1ccc(CC(N)=O)cc1 (stereo not drawn) [Atenolol],Papp Mean,A-B,0.51 10^−6 cm · s^−1
same,Papp Sample - 01,A-B,0.52 10^−6 cm · s^−1
same,Papp Sample - 02,A-B,0.49 10^−6 cm · s^−1
same,Papp Mean,B-A,1.01 10^−6 cm · s^−1
same,Papp Sample - 01,B-A,1.02 10^−6 cm · s^−1
same,Papp Sample - 02,B-A,1.01 10^−6 cm · s^−1
